According to US20150164064A1, “METHODS, COMPOSITIONS AND DEVICES FOR INDUCING STASIS IN CELLS, TISSUES, ORGANS, AND ORGANISMS” (Fred Hutchinson Cancer Research Center, priority 2003, published 2015):
At least one compound was matched to its structure with a doubt left.

Tests used:
Type in all cases: in vivo, mouse
[1] = tested on: mice; assay: H2S protects mice from hypoxia
[2] = tested on: mice; assay: Core body temperature, heart rate and movement of mice by telemetry in regulated H2S atmosphere
Excerpt: Implantation of telemetry devices.
Exposure of Mice to Regulated Atmosphere.
Regulation of Ambient Temperature. […] Mice were exposed to regulated atmosphere as described above.

[3] = tested on: mice; assay: Respiration of mice exposed to H2S (oxygen consumption, carbon dioxide production, breathing); details: 80 ppm
[4] = four telemetry mice, approximately 80 ppm, 6 hr, 15°C

## S [H2S, hydrogen sulfide]
[1]; after 4% oxygen with H2S
  condition after recovery, tested 24 hours later: viable and normally responsive
[1]; after 80 ppm and 11 minutes of 5.2% oxygen
  condition 3 weeks later: still doing well
[1]; oxygen tension reduced to 4%, up to an hour
  viability in hypoxia: remain viable
[1]; pre-equilibrated 80 ppm for 3 hours, 11 minutes of 5.2% oxygen
  survival in hypoxia: survived
[2]; 20 ppm
  drop in core temperature: minor drops
[2]; 20 ppm, listed as hydrogen sulfide
  drop in core temperature: minor
[2]; 40 ppm
  drop in core temperature: minor drops
[2]; 40 ppm, listed as hydrogen sulfide
  drop in core temperature: minor
[2]; 60 ppm
  drop in core temperature: substantial drop
[2]; 80 ppm (dose series)
  drop in core temperature: substantial drop
[2]; acclimatized to warm thermoneutral temperature, versus cold-acclimated mouse
  core body cooling, normothermic mouse: cooled much more quickly
[2]; acclimatized to ~12°C before gas exposure
  core body cooling, cold-acclimated mouse: more resistant to core body cooling
[2]; first mouse, 80 ppm, incubator 18°C, 90 min
  heart rate and gross motor movement: no immediate changes
[2]; [4]
  core body temperature: clear decrease
  heart rate and gross motor movement: marked drop
[2]; inhaled 80 ppm
  hibernation state: immediately underwent hibernation
[2]; second mouse, 80 ppm for 3 hrs
  gross motor movement: almost no activity
[2]; seven mice, 80 ppm for 6 hrs
  recovery after rewarming in room air: successfully recovered
[3]
  decrease in CO2 production: three-fold reduction
  time to decrease in CO2 production / new baseline: less than five minutes
